# Source: article PMC5742674
# These are yes or no findings as the source states them, for the method shown. Binding seen in cells or lysates may run through a third protein. Some results given as binding are weak or reduced against the parent protein; the word gives no strength.
# T1: toll‐like receptor 3 (TLR3) (mouse (endogenous in heart tissue)) (UniProt Q99MB1)
# T1 sequence: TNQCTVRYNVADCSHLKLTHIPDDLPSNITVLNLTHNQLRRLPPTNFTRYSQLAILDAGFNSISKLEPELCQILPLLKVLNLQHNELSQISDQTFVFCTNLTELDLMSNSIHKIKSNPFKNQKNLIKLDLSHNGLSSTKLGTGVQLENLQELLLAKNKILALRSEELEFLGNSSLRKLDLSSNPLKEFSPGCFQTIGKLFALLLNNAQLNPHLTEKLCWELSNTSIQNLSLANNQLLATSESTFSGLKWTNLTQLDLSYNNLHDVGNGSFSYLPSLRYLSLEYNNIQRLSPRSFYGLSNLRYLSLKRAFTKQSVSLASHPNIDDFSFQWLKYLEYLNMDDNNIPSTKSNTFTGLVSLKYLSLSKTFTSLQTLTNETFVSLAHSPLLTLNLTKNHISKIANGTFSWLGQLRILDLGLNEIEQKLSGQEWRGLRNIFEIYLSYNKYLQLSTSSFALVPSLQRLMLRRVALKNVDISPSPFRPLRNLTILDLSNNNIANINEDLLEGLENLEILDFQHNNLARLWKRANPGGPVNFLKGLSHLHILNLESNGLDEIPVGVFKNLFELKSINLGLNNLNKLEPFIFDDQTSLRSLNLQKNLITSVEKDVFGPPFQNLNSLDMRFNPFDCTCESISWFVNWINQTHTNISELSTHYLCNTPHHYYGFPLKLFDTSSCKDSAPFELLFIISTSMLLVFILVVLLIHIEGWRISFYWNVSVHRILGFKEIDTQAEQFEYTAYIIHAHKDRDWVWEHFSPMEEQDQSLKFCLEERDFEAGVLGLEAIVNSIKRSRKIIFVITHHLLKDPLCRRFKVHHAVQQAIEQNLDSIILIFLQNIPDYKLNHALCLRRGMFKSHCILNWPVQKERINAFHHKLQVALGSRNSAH
# Biological target: T1, toll‐like receptor 3 (TLR3) (mouse (endogenous in heart tissue))
# Experiment: co-IP; mouse heart tissue lysates (RIPA buffer, 300 μg total protein; sham or infarct myocardium, 4 weeks after MI), pre-incubated with isotype IgG, precipitated with 6 μg anti-TLR3 antibody overnight at 4°C and protein G-agarose, then Western blot; IP with isotype IgG as control
binder,measurement,value
"TIR‐domain‐containing adaptor inducing interferon‐β (Trif) (protein, UniProt Q80UF7 1-732) MDNPGPSLRGAFGILGALERDRLTHLKHKLGSLCSGSQESKLLHAMVLLALGQDTEARVSLESLKMNTVAQLVAHQWADMETTEGPEEPPDLSWTVARLYHLLAEENLCPASTRDMAYQVALRDFASQGDHQLGQLQNEAWDRCSSDIKGDPSGFQPLHSHQGSLQPPSASPAVTRSQPRPIDTPDWSWGHTLHSTNSTASLASHLEISQSPTLAFLSSHHGTHGPSKLCNTPLDTQEPQLVPEGCQEPEEISWPPSVETSVSLGLPHEISVPEVSPEEASPILPDALAAPDTSVHCPIECTELSTNSRSPLTSTTESVGKQWPITSQRSPQVPVGDDSLQNTTSSSPPAQPPSLQASPKLPPSPLSSASSPSSYPAPPTSTSPVLDHSETSDQKFYNFVVIHARADEQVALRIREKLETLGVPDGATFCEEFQVPGRGELHCLQDAIDHSGFTILLLTASFDCSLSLHQINHALMNSLTQSGRQDCVIPLLPLECSQAQLSPDTTRLLHSIVWLDEHSPIFARKVANTFKTQKLQAQRVRWKKAQEARTLKEQSIQLEAERQNVAAISAAYTAYVHSYRAWQAEMNKLGVAFGKNLSLGTPTPSWPGCPQPIPSHPQGGTPVFPYSPQPPSFPQPPCFPQPPSFPQPPSFPLPPVSSPQSQSFPSASSPAPQTPGPQPLIIHHAQMVQLGVNNHMWGHTGAQSSDDKTECSENPCMGPLTDQGEPLLETPE",binding,binds
